These are yes or no findings as the source states them, for the method shown. Binding seen in cells or lysates may run through a third protein. For part of these data: A result given as binding can be weak or reduced; the word gives no strength. For part of these data: Sequences can lack the tags named with a protein.

Amino acid sequences for entries named in this document (tags omitted). A change or cut given only in a name is not applied to a line headed by its entry.
UniProt Q9UN81: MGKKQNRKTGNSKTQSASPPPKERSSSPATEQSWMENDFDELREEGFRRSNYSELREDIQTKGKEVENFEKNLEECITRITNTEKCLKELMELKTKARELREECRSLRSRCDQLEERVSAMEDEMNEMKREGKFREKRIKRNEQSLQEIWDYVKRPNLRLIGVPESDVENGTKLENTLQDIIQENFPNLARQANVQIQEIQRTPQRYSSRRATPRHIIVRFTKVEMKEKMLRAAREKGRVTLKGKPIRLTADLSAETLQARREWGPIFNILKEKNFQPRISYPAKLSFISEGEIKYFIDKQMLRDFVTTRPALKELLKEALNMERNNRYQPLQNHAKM
UniProt Q8WUM4: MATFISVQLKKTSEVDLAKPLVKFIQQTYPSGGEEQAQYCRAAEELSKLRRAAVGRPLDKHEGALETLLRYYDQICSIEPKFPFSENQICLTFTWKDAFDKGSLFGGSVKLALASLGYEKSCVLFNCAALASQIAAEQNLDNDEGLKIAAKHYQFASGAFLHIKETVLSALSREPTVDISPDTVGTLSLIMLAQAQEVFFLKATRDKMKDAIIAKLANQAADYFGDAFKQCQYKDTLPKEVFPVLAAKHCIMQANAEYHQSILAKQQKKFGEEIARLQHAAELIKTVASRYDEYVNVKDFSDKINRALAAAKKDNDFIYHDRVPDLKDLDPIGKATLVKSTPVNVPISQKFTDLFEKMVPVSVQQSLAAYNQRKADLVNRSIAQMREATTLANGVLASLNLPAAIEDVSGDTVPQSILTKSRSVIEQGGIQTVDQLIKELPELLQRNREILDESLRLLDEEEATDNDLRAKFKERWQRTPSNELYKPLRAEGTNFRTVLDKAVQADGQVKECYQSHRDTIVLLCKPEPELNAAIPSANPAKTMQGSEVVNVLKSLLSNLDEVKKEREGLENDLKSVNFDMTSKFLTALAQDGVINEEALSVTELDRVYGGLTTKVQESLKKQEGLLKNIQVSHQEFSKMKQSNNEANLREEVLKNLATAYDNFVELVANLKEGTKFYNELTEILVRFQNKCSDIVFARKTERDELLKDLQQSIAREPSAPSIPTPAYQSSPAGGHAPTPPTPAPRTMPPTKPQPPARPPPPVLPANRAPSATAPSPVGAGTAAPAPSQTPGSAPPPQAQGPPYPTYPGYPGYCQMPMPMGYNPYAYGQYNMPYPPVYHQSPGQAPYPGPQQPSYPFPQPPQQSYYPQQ

In experiment [1] the target is T1, HA-tagged Bro1p (S. cerevisiae) (UniProt P48582).
T1 sequence: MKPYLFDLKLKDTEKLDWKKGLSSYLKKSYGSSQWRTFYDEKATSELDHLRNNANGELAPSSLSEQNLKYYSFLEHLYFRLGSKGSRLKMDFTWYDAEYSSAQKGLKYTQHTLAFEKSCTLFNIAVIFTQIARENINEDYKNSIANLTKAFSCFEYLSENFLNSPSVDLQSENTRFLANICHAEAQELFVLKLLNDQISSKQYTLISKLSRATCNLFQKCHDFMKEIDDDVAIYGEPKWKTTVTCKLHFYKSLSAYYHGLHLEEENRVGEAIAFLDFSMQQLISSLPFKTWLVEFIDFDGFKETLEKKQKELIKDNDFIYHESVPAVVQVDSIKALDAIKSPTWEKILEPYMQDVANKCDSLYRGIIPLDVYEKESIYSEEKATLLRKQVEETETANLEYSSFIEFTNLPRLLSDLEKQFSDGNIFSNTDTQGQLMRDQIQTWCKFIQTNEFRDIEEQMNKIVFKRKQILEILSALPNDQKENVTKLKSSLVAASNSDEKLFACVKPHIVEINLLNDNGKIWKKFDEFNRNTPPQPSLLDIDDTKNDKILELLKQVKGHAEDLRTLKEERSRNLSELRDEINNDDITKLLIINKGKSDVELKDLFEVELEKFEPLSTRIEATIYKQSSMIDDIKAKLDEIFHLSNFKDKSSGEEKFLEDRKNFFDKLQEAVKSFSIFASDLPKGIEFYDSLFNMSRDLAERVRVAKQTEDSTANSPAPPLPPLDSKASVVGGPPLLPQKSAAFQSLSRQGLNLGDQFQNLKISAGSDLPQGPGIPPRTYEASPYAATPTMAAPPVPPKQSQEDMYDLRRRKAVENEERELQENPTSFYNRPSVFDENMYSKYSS
As to the kind of experiment: co-IP; yeast lysates (JHY148) after galactose induction; IP with anti-HA affinity matrix, western blot for Zorro3 ORF1p (G01); 25 mM Tris-Cl pH 7.4, 150 mM NaCl, 0.5% Triton X-100, 0.5% Na-deoxycholate. (In general: In western blotting, separated proteins are transferred to a membrane and probed.)

Experiment [2] deals with T2, HA-tagged Snf7p (S. cerevisiae) (UniProt P39929).
T2 sequence: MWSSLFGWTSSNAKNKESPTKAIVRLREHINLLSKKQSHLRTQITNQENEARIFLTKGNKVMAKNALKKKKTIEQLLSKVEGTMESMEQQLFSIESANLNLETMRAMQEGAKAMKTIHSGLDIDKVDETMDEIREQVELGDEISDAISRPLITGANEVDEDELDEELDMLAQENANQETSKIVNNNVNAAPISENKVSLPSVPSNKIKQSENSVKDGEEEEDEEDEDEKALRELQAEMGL
The description is as above.

Experiment [3] has as its target T3, HA-tagged Snf8p (S. cerevisiae) (UniProt Q12483).
T3 sequence: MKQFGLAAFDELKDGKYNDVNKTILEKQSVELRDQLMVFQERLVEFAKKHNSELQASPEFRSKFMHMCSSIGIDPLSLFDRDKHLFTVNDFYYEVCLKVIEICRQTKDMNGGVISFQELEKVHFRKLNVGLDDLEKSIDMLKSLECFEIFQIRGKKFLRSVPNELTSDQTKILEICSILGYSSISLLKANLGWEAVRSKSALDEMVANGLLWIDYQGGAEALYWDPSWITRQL
Described as above.

Experiment [4] concerns the target T4, HA-tagged Vps23p (S. cerevisiae) (UniProt P25604).
T4 sequence: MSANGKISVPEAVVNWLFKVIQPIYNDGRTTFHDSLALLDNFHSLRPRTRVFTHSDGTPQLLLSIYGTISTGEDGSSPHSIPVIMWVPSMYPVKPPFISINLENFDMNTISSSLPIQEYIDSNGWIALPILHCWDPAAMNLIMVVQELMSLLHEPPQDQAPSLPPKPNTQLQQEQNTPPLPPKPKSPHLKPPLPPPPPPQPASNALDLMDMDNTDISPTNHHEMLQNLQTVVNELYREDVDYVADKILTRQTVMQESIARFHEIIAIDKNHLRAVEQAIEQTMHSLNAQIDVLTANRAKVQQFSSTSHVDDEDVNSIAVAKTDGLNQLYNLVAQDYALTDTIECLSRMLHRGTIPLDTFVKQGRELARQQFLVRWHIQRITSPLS
Described as above.

Experiment [5] deals with T5, HA-tagged Vps4p (S. cerevisiae) (UniProt P52917).
T5 sequence: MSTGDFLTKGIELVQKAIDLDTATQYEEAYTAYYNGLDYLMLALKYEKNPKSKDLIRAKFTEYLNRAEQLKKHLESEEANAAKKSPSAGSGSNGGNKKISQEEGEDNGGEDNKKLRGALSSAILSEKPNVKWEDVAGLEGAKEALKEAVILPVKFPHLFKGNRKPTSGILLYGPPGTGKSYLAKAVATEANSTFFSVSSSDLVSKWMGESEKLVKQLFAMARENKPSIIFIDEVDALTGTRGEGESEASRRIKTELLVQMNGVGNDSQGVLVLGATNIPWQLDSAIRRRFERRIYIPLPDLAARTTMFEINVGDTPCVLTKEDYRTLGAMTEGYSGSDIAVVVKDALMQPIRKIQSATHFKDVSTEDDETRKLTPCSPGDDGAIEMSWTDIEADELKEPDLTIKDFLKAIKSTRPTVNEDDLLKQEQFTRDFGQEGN
The description is as above.

Experiment [6] addresses human L1 ORF1p Y282A (human) (UniProt Q9UN81). The experiment can be described thus: co-IP; Tet-293 cell lysates, 48 h after doxycycline induction of L1 and ALIX-2HA transfection; IP of L1 ORF1p with JH74, western blot with anti-ALIX or anti-HA 12CA5; 25 mM HEPES pH 7.4, 200 mM NaCl, with DNase I and RNase A.
Experiment [7] deals with Zorro3 ORF1p (Candida albicans). The experiment can be described thus: co-IP; yeast lysates (JHY148; control strain JHY146 without Zorro3) after galactose induction; IP with anti-Zorro3 ORF1p antibody G01, western blot for HA; 25 mM Tris-Cl pH 7.4, 150 mM NaCl, 0.5% Triton X-100, 0.5% Na-deoxycholate; with or without 0.5 ug/mL RNase A.

On to Zorro3 ORF1p (Candida albicans), for which the binding entry in experiment [1] is “no binding”; in experiment [2] it was “binds”; in experiment [3], “binds”; in experiment [4], “binds”; in experiment [5] it was “binds”.

For ALIX-2HA (from UniProt Q8WUM4 1-868), the binding result in experiment [6] is reported as “no binding”.

B1: HA-tagged Snf8p (protein, UniProt Q12483 1-233)
chain: MKQFGLAAFDELKDGKYNDVNKTILEKQSVELRDQLMVFQERLVEFAKKHNSELQASPEFRSKFMHMCSSIGIDPLSLFDRDKHLFTVNDFYYEVCLKVIEICRQTKDMNGGVISFQELEKVHFRKLNVGLDDLEKSIDMLKSLECFEIFQIRGKKFLRSVPNELTSDQTKILEICSILGYSSISLLKANLGWEAVRSKSALDEMVANGLLWIDYQGGAEALYWDPSWITRQL
Turning to B1, the binding result in experiment [7] is reported as “binds”.

B2: HA-tagged Snf7p (protein, UniProt P39929 1-240)
chain: MWSSLFGWTSSNAKNKESPTKAIVRLREHINLLSKKQSHLRTQITNQENEARIFLTKGNKVMAKNALKKKKTIEQLLSKVEGTMESMEQQLFSIESANLNLETMRAMQEGAKAMKTIHSGLDIDKVDETMDEIREQVELGDEISDAISRPLITGANEVDEDELDEELDMLAQENANQETSKIVNNNVNAAPISENKVSLPSVPSNKIKQSENSVKDGEEEEDEEDEDEKALRELQAEMGL
On to B2, for which, in experiment [7], the binding result is “binds”.

B3: HA-tagged Vps23p (protein, UniProt P25604 1-385)
chain: MSANGKISVPEAVVNWLFKVIQPIYNDGRTTFHDSLALLDNFHSLRPRTRVFTHSDGTPQLLLSIYGTISTGEDGSSPHSIPVIMWVPSMYPVKPPFISINLENFDMNTISSSLPIQEYIDSNGWIALPILHCWDPAAMNLIMVVQELMSLLHEPPQDQAPSLPPKPNTQLQQEQNTPPLPPKPKSPHLKPPLPPPPPPQPASNALDLMDMDNTDISPTNHHEMLQNLQTVVNELYREDVDYVADKILTRQTVMQESIARFHEIIAIDKNHLRAVEQAIEQTMHSLNAQIDVLTANRAKVQQFSSTSHVDDEDVNSIAVAKTDGLNQLYNLVAQDYALTDTIECLSRMLHRGTIPLDTFVKQGRELARQQFLVRWHIQRITSPLS
With B3, the binding result in experiment [7] is reported as “binds”.

The values are drawn from publication PMC5478143.
